Experimental data: PMC3700849
Results are given in words; binding and its absence hold for the method and conditions named. In cells and extracts the contact can be indirect. Binding can be weak; no strength is given.

target: α-actinin (human (endogenous in SK-N-AS)); experiment: co-IP; IP of α-actinin with mouse monoclonal MAB1682 from whole cell lysates of SK-N-AS transfectants expressing ICAM-2 WT or a gsv variant; immunoblots for α-actinin, ICAM-2 (AF244) and actin; qualitative

Binder	binding
Intercellular adhesion molecule-2 wild type (ICAM-2 WT) (protein, UniProt P13598 25-275, N-glycosylated at asparagines 47, 82, 105, 153, 176 and 187) KVFEVHVRPKKLAVEPKGSLEVNCSTTCNQPEVGGLETSLDKILLDEQAQWKHYLVSNISHDTVLQCHFTCSGKQESMNSNVSVYQPPRQVILTLQPTLVAVGKSFTIECRVPTVEPLDSLTLFLFRGNETLHYETFGKAAPAPQEATATFNSTADREDGHRNFSCLAVLDLMSRGGNIFHKHSAPKMLEIYEPVSDSQMVIIVTVVSVLLSLFVTSVLLCFIFGQHLRQQRMGTYGVRAAWRRLPQAFRP	binds
ICAM-2 glycosylation site variant gsv4,5 (protein, UniProt P13598 25-275) KVFEVHVRPKKLAVEPKGSLEVNCSTTCNQPEVGGLETSLDKILLDEQAQWKHYLVSNISHDTVLQCHFTCSGKQESMNSNVSVYQPPRQVILTLQPTLVAVGKSFTIECRVPTVEPLDSLTLFLFRGAETLHYETFGKAAPAPQEATATFASTADREDGHRNFSCLAVLDLMSRGGNIFHKHSAPKMLEIYEPVSDSQMVIIVTVVSVLLSLFVTSVLLCFIFGQHLRQQRMGTYGVRAAWRRLPQAFRP	binds
ICAM-2 glycosylation site variant gsv1,2,5 (protein, UniProt P13598 25-275) KVFEVHVRPKKLAVEPKGSLEVACSTTCNQPEVGGLETSLDKILLDEQAQWKHYLVSAISHDTVLQCHFTCSGKQESMNSNVSVYQPPRQVILTLQPTLVAVGKSFTIECRVPTVEPLDSLTLFLFRGNETLHYETFGKAAPAPQEATATFASTADREDGHRNFSCLAVLDLMSRGGNIFHKHSAPKMLEIYEPVSDSQMVIIVTVVSVLLSLFVTSVLLCFIFGQHLRQQRMGTYGVRAAWRRLPQAFRP	binds

Now from value to binder:

binding	Binder
binds	ICAM-2 glycosylation site variant gsv1,4,5 (protein, UniProt P13598 25-275, not able to be glycosylated at 47, 153 and 176) KVFEVHVRPKKLAVEPKGSLEVACSTTCNQPEVGGLETSLDKILLDEQAQWKHYLVSNISHDTVLQCHFTCSGKQESMNSNVSVYQPPRQVILTLQPTLVAVGKSFTIECRVPTVEPLDSLTLFLFRGAETLHYETFGKAAPAPQEATATFASTADREDGHRNFSCLAVLDLMSRGGNIFHKHSAPKMLEIYEPVSDSQMVIIVTVVSVLLSLFVTSVLLCFIFGQHLRQQRMGTYGVRAAWRRLPQAFRP
binds	ICAM-2 glycosylation site variant gsv1-6 (protein, UniProt P13598 25-275) KVFEVHVRPKKLAVEPKGSLEVACSTTCNQPEVGGLETSLDKILLDEQAQWKHYLVSAISHDTVLQCHFTCSGKQESMNSAVSVYQPPRQVILTLQPTLVAVGKSFTIECRVPTVEPLDSLTLFLFRGAETLHYETFGKAAPAPQEATATFASTADREDGHRAFSCLAVLDLMSRGGNIFHKHSAPKMLEIYEPVSDSQMVIIVTVVSVLLSLFVTSVLLCFIFGQHLRQQRMGTYGVRAAWRRLPQAFRP
